The assay addresses human estrogen receptor beta (ERβ) (human) (UniProt Q92731). Description: co-IP.

Chains of the proteins cited; added tags and fusions are not shown. Residues count along the entry.
UniProt Q92731: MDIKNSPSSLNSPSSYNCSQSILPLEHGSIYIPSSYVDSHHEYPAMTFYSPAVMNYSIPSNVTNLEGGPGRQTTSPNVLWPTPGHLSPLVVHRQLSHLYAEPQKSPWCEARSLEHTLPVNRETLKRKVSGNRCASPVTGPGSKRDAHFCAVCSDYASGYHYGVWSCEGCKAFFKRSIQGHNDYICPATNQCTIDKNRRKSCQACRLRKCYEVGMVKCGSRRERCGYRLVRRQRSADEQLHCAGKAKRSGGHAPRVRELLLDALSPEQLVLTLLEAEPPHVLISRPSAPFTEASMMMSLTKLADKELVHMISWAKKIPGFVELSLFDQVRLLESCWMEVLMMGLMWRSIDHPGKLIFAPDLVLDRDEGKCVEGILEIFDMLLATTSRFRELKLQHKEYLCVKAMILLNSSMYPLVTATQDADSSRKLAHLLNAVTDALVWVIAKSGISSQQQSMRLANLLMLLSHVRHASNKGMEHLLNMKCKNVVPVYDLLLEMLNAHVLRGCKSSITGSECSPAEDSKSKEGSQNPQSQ
UniProt P05412: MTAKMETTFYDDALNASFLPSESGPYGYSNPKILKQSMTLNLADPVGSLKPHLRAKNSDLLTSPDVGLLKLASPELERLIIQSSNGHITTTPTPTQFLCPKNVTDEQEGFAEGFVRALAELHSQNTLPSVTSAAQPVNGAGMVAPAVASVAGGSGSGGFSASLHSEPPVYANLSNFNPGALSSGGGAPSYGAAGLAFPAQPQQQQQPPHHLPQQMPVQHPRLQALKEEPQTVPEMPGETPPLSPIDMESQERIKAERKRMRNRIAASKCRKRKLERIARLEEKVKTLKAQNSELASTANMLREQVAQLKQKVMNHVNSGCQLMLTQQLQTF
UniProt P11021, residues 19-654: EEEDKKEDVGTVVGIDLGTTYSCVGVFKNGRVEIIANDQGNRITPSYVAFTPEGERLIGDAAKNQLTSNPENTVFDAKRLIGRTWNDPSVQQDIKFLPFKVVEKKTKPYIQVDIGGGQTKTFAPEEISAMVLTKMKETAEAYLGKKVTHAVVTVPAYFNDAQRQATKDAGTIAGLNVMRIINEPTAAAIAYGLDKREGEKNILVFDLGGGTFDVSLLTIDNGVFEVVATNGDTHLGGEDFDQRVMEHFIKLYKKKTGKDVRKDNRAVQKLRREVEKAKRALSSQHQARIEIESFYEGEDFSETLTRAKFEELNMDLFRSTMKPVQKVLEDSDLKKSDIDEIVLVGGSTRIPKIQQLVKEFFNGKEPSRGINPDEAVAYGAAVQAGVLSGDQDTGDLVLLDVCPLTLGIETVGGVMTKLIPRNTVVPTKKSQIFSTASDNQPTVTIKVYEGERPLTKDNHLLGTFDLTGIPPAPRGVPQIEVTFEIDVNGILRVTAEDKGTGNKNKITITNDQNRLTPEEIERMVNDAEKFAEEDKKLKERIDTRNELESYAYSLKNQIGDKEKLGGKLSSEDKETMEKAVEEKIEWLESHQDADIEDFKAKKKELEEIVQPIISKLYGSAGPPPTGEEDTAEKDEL

These are yes or no findings as the source states them, for the method shown. In cells and extracts the contact can be indirect. Some results given as binding are weak or reduced against the parent protein; the word gives no strength.

JUN (from UniProt P05412 1-331): the binding result is on record as “binds”.

Consider HSPA5 (from UniProt P11021 19-654), for which the binding result is on record as “binds”.

B1: CAT (enzyme, UniProt P04040 1-527)
chain: MADSRDPASDQMQHWKEQRAAQKADVLTTGAGNPVGDKLNVITVGPRGPLLVQDVVFTDEMAHFDRERIPERVVHAKGAGAFGYFEVTHDITKYSKAKVFEHIGKKTPIAVRFSTVAGESGSADTVRDPRGFAVKFYTEDGNWDLVGNNTPIFFIRDPILFPSFIHSQKRNPQTHLKDPDMVWDFWSLRPESLHQVSFLFSDRGIPDGHRHMNGYGSHTFKLVNANGEAVYCKFHYKTDQGIKNLSVEDAARLSQEDPDYGIRDLFNAIATGKYPSWTFYIQVMTFNQAETFPFNPFDLTKVWPHKDYPLIPVGKLVLNRNPVNYFAEVEQIAFDPSNMPPGIEASPDKMLQGRLFAYPDTHRHRLGPNYLHIPVNCPYRARVANYQRDGPMCMQDNQGGAPNYYPNSFGAPEQQPSALEHSIQYSGEVRRFNTANDDNVTQVRAFYVNVLNEEQRKRLCENIAGHLKDAQIFIQKKAVKNFTEVHPDYGSHIQALLDKYNAEKPKNAIHTFVQSGSHLAAREKANL
For the molecule B1, the binding result was “binds”.

(Values after article doi:10.1101/2023.12.23.573228.)
